# Assay results from patent US12208143B2, “Compositions and methods for transport across the blood brain barrier” (OPHIDION INC., priority 2011, dated 2025).
# Entries after “also recorded” stand apart in the source; their conditions may differ. Not every detail of the peptide structures is certain; ends, links or a residue may be inferred. No end group written: not given here.
# What was measured:
# lynx1 mRNA [1] = test: siRNA uptake of peptide-lynx1 siRNA complexes into primary neuronal cultures (lynx1 mRNA knock-down, qPCR); format: cell-based, mouse
# lynx1 mRNA [2] = test: Knock-down of lynx1 mRNA after delivery of anti-lynx1 siRNA into cultured cortical neurons via peptide variant-siRNA complexes (qPCR); format: cell-based, mouse
Molecule,reduction in lynx1 mRNA compared to no siRNA (Mock) (lynx1 mRNA [1]),decrease of lynx1 mRNA compared to RVG29 and RVG19 complexes (lynx1 mRNA [2]),knock-down of lynx1 mRNA relative to the lynx1-loop2 peptide-siRNA complex (lynx1 mRNA [2])
CC[C@H](C)[C@H](NC(=O)[C@H](CC(=O)O)NC(=O)[C@H](CS)NC(=O)[C@@H]1CCCN1C(=O)[C@@H](NC(=O)CNC(=O)[C@@H]1CCCN1C(=O)[C@H](CCCNC(=N)N)NC(=O)[C@@H]1CCCN1C(=O)[C@H](CC(N)=O)NC(=O)[C@H](CCC(=O)O)NC(=O)[C@@H]1CCCN1C(=O)[C@H](CCSC)NC(=O)[C@H](Cc1c[nH]c2ccccc12)NC(=O)[C@@H](NC(=O)[C@@H](NC(=O)[C@@H](N)Cc1ccc(O)cc1)[C@@H](C)O)[C@@H](C)CC)[C@@H](C)O)C(=O)N[C@@H](Cc1ccccc1)C(=O)N[C@H](C(=O)N[C@@H](CC(N)=O)C(=O)N[C@@H](CO)C(=O)N[C@@H](CCCNC(=N)N)C(=O)NCC(=O)N[C@@H](CCCCN)C(=O)N[C@@H](CCCNC(=N)N)C(=O)N[C@@H](C)C(=O)N[C@@H](CO)C(=O)N[C@@H](CC(N)=O)C(=O)NCC(=O)O)[C@@H](C)O [RVG29],reduction in lynx1 mRNA was observed,–,–
"MTTRTYFTPYRMKVRK [lynx1-loop2, MTTRTYFTPYRMKVRK]",–,more effective at decreasing levels of lynx1 mRNA compared to RVG29 and RVG19; also recorded: decrease lynx1 mRNA in cultured cortical neurons more effectively than both RVG29 and RVG19,–
"VRITDPSSSRKDHSVN [ly6H-loop2, VRITDPSSSRKDHSVN]",no significant reduction in lynx1 mRNA levels,–,did not result in knock-down of lynx1 mRNA
